System: BAEC
Assay: Sphingomyelin quantification in cells and detergent-resistant membrane fractions
Format: cell-based, bovine
Details: for Lipid content, Total: initial Triton X-100 suspension

SMILES: CCCCCCCCCCCCCC=CC(O)C(COP(=O)([O-])OCC[N+](C)(C)C)NC(=O)CCCCC (centres unmarked) [C6-SM, N-hexanoyl-sphingomyelin]
- Fraction of the total added amount of C6-SM taken up by cells (10 μM C6-SM, within 60 min): ~1.5%
- Lipid content, Total (BAEC incubated 60 min with 10 μM C6-SM, n=3): 1.81±0.47 nmol mg^−1 of total cellular p
- Lipid content, Total (BAEC incubated 60 min with 10 μM C6-SM, n=3, listed as Inserted C6-SM): 1.81±0.47 nmol mg^−1 of total cellular protein
- Lipid content, non-DRM (BAEC incubated 60 min with 10 μM C6-SM, lower half of sucrose gradient, n=3): 1.16±0.56 nmol mg^−1 of total cellular protein
- Lipid content, DRM (BAEC incubated 60 min with 10 μM C6-SM, upper half of sucrose gradient, n=3): 0.22±0.17 nmol mg^−1 of total cellular protein

Source: article PMC2410169, “N-hexanoyl-sphingomyelin potentiates in vitro doxorubicin cytotoxicity by enhancing its cellular influx” (British Journal of Cancer, 2004)
